Reference: patent US20120308578A1
Results are given in words; binding and its absence hold for the method and conditions named. Some binding calls cover weakened binding; strength is not graded here.

By UniProt entry, the sequences of proteins in these tests, tags left out. Residues count along the entry.
UniProt O75888, residues 105-250: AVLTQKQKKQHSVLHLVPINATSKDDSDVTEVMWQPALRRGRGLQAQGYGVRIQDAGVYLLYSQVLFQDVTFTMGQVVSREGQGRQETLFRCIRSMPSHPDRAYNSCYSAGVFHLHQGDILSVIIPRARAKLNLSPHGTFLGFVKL

Molecular target: T1, syndecan-1 (CD138) expressed on the surface of SLE-DCs (human) (UniProt P18827)
T1 sequence (heparan sulfate proteoglycan (glycosaminoglycan chains; sites not stated), looked up): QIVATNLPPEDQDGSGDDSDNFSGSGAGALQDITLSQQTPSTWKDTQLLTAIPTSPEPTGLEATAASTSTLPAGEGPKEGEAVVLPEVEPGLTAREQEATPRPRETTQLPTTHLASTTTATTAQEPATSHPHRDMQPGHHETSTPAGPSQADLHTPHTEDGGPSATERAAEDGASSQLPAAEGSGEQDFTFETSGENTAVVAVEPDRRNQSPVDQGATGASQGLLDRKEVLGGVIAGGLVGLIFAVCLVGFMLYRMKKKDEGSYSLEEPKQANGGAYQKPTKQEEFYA
Experiment: flow cytometry, APRIL trimer titrated on SLE-DCs for 30 min, detected with anti-human APRIL Ab

APRIL trimer (ZymoGenetics) (from UniProt O75888 105-250) (ligand)
binding: binds
